Reference: PubChem BioAssay (EPA / NIEHS)
For part of these data: The hits were mostly taken out for another list; the other results follow. This is a selection; strong and weak results do not stand in their true shares. More than one record can exist for a structure, and the calls need not agree. Activity calls are given as the source filed them. Rule for the calls: active = hit-call score of the fitted dose curve at least 0.9, where 1 is the maximum; inactive = score below 0.9.

The chains behind the UniProt entries cited, without tags or fusion partners. Where a name states a change or a piece, a line headed by the entry shows the natural chain unless it says otherwise.
UniProt P42574: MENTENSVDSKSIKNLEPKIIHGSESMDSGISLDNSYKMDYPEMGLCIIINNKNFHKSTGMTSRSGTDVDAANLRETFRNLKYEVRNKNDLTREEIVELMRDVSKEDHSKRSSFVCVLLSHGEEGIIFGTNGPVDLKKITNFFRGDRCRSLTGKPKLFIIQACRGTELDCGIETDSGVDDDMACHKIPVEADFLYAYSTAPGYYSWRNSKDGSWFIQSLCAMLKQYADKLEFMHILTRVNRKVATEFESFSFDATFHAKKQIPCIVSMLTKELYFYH
UniProt Q5TCH4: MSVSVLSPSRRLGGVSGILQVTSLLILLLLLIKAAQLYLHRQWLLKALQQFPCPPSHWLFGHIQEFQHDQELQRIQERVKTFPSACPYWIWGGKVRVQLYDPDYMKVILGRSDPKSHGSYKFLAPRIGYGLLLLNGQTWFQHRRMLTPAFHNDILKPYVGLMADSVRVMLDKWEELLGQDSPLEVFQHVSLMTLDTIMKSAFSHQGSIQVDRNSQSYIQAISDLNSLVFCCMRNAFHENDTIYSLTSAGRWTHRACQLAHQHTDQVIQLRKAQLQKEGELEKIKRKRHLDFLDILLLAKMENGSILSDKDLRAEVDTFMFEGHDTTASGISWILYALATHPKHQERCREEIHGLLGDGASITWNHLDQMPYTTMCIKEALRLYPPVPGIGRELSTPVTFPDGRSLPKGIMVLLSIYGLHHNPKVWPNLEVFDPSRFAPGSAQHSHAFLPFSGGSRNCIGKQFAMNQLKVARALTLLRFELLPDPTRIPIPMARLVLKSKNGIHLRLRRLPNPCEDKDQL
UniProt P49327, whole entry, looked up: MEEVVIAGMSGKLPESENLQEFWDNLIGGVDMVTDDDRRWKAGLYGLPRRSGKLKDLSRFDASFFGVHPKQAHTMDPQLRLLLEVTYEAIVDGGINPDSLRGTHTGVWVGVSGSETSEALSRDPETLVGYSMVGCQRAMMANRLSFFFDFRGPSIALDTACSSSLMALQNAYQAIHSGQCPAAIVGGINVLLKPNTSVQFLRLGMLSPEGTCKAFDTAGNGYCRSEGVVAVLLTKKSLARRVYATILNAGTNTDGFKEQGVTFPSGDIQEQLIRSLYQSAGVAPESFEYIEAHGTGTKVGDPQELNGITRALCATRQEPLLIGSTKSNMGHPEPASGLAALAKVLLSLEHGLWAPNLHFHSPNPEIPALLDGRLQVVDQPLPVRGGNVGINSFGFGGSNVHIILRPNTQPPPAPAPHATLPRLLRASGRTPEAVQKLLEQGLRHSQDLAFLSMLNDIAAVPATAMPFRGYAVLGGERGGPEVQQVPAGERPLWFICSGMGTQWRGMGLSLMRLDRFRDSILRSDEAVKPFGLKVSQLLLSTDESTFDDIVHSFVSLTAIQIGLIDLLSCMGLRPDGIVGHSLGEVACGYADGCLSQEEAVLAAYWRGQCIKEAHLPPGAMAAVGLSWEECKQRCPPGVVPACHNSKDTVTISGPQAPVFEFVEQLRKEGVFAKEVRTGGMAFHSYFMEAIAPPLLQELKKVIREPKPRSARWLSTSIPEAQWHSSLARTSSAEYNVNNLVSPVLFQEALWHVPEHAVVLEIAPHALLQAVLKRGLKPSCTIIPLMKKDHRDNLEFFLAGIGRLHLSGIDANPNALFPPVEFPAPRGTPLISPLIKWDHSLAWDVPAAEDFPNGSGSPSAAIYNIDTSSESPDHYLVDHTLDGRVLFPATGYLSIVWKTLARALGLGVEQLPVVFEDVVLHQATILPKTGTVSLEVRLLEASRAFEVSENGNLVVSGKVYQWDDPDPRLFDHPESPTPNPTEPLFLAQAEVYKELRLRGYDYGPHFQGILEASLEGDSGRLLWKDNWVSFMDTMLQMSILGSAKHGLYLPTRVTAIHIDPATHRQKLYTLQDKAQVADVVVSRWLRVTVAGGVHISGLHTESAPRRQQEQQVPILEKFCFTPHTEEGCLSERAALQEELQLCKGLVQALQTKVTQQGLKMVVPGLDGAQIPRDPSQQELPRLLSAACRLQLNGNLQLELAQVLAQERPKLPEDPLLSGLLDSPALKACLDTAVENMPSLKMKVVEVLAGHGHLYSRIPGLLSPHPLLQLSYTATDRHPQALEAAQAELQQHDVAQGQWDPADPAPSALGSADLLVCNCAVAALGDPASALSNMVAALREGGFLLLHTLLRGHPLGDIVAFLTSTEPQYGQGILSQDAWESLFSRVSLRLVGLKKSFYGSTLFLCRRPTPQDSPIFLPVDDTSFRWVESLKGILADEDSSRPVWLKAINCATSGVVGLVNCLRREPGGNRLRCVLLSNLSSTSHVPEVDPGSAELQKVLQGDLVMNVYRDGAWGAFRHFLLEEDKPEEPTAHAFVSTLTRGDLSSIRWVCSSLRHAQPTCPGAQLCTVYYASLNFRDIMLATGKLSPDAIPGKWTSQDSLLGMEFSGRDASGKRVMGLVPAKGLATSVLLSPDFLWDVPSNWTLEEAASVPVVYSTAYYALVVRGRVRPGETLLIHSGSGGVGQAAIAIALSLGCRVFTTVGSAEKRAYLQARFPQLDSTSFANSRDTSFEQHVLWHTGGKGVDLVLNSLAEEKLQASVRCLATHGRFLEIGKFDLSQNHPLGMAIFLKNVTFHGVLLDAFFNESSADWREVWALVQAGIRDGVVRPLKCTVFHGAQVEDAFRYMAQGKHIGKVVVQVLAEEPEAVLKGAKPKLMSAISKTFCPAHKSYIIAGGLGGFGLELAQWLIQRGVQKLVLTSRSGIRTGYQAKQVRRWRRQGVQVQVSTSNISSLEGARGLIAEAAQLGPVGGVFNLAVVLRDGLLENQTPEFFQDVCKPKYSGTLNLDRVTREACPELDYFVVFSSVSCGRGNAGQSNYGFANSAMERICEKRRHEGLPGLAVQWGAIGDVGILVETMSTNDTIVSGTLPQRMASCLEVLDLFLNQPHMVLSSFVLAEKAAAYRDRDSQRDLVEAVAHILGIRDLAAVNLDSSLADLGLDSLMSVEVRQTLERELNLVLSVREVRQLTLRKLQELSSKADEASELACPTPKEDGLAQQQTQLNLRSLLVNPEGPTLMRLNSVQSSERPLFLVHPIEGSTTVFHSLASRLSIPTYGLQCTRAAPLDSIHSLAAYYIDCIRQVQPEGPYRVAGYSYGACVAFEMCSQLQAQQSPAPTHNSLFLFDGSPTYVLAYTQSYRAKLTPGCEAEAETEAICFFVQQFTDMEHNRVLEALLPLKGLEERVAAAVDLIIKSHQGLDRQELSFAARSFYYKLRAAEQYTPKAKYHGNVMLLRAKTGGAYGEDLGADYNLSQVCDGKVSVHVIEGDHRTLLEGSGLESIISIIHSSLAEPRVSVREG

Tests used:
[1] = read-out: growth arrest and DNA damage 45 (GADD45A), GADD45A (gene 1647); test: LTEA_HepaRG_GADD45A: Life Technologies and Expression Analysis (LTEA) Assay for growth arrest and DNA damage 45 (GADD45A) using HepaRG (AID 2283458); conditions: actives raise or lower the signal; mRNA level, 48 h
How it was run: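 GADD45A expression was measured by TaqMan qRT-PCR against three housekeeping genes (ACTB, GAPDH, POLR2A) after 48 h treatment of HepaRG cells. Eight-point half-log series up to 100 uM in 0.5% DMSO, run in duplicate.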

[2] = read-out: Caspase-3 (Homo sapiens) (UniProt P42574); test: LTEA_HepaRG_CASP3: Life Technologies and Expression Analysis (LTEA) Assay for cysteine-aspartic acid protease (CASP3) using HepaRG (AID 2283477); conditions: actives raise or lower the signal; mRNA level, 48 h
How it was run: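 HepaRG, 48 h exposure, 8 conc. (top 100 uM, half-log steps, duplicate), 0.5% DMSO vehicle; qRT-PCR of CASP3 transcript, housekeeping-normalised (ACTB/GAPDH/POLR2A); bidirectional curve fit vs DMSO baseline.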

[3] = read-out: Cytochrome P450 4A22 (Homo sapiens) (UniProt Q5TCH4); test: LTEA_HepaRG_CYP4A22: Life Technologies and Expression Analysis (LTEA) Assay for Cytochrome P450 4A22 (CYP4A22) using HepaRG (AID 2283495); conditions: actives raise or lower the signal; mRNA level, 48 h
How it was run: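 HepaRG, 48 h post-plating -> serum-free induction medium; dosed 48 h, duplicate, 8 conc. (100 uM top, half-log), 0.5% DMSO. Readout: CYP4A22 mRNA by qRT-PCR, ACTB/GAPDH/POLR2A normalization; gain/loss fit relative to DMSO.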

[4] = read-out: sulfotransferase 2A1 (SULT2A1), SULT2A1 (gene 6822); test: LTEA_HepaRG_SULT2A1: Life Technologies and Expression Analysis (LTEA) Assay for sulfotransferase 2A1 (SULT2A1) using HepaRG (AID 2283531); conditions: actives raise or lower the signal; mRNA level, 48 h
How it was run: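 HepaRG, 48 h chemical exposure, 8-pt half-log curve from 100 uM in 0.5% DMSO, duplicates. Readout: TaqMan qRT-PCR of SULT2A1 mRNA, housekeeping-normalized. Bidirectional fit vs DMSO baseline.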

[5] = read-out: Fatty acid synthase (Homo sapiens) (UniProt P49327); test: LTEA_HepaRG_FASN: Life Technologies and Expression Analysis (LTEA) Assay for Fatty Acid Synthase (FASN) using HepaRG (AID 2283448); conditions: actives raise or lower the signal; mRNA level, 48 h
How it was run: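 FASN transcript measured by TaqMan qRT-PCR, normalised to three housekeeping genes, after 48 h chemical exposure of HepaRG cells. Eight-point half-log series from 100 uM in 0.5% DMSO, duplicates; gain or loss fitted against vehicle.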

[6] = CCTE_Shafer_MEA_acute_per_network_burst_electrodes_number_mean: CCTE's Neural Acute Assay for Mean Number of Electrodes in a Network Burst, Shafer Lab (AID 2284021);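 note: curves fitted for decreases only so hits reduce electrodes per burst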
How it was run: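 Readout: % change in mean electrodes active per network burst, post- vs pre-treatment, each well. Spikes detected at 8x rms noise after 300-5000 Hz band-pass; rat cortical cultures, DIV 13/15, compounds 0.03-40 uM, DMSO baseline.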

[7] = CEETOX_H295R_OHPROG: CeeTox H295R High-throughput Steroidogenesis Assay for OH-Progesterone (OHPROG) (AID 2283435); conditions: actives raise or lower the signal
[8] = CCTE_Simmons_MITO_max_resp_rate: CCTE's HepG2 Seahorse XF Respirometric Screening Assay at Maximal Respiratory State [uncoupled], Simmons Lab (AID 2284002); conditions: actives raise or lower the signal
How it was run: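 HepG2, Seahorse XF96, maximal OCR post-FCCP. Cpd 125 nM–100 uM final (7 conc), n=3 biological. Kinetic reads every 6 min (3 min mix/3 min measure) over 72 min; fit bidirectional vs DMSO.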

[9] = CCTE_Shafer_MEA_acute_cross_correlation_HWHM: CCTE's Neural Acute Assay for Cross Correlation at Half Width at Half Maximum, Shafer Lab (AID 2284026);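 note: percent change per well from pre-dose baseline in spike cross-correlogram half width; hits are a decrease in cross-correlogram half width relative to DMSO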
How it was run: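 Read-out: half width at half maximum of action-potential cross-correlogram, percent change versus pre-treatment baseline, fitted in loss direction against DMSO. Rat cortical cultures, DIV 13 or 15, dosed 0.03-40 uM, 40-min recordings at 37 C.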

[10] = CCTE_Shafer_MEA_dev_per_burst_interspike_interval: CCTE's Neural Network Formation Assay for Burst Interspike Interval, Shafer Lab (AID 2284044);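 note: potency for a decrease of within-burst interspike interval below DMSO level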
How it was run: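 Readout is the average time between spikes inside single-electrode bursts, taken as a well mean across bursting electrodes. Cortical neurons from rat developed networks on MEA plates under continuous 12-day exposure; recordings on days 5, 7, 9 and 12 were integrated by trapezoidal AUC.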

[11] = CEETOX_H295R_CORTIC: CeeTox H295R High-throughput Steroidogenesis Assay for Corticosterone (CORTIC) (AID 2283437); conditions: actives raise or lower the signal
How it was run: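 Medium corticosterone was quantified by tandem mass spectrometry following 48 hours of chemical exposure (0.1% DMSO) in human H295R cells previously stimulated 48 hours with 10 uM forskolin. Viability checked by MTT; chemicals diluted and retested when viability fell below 70%.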

[12] = CEETOX_H295R_DOC: CeeTox H295R High-throughput Steroidogenesis Assay for DOC (AID 2283439); conditions: actives raise or lower the signal
How it was run: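 11-Deoxycorticosterone quantified in medium by MTBE extraction and HPLC-MS/MS after 48 h chemical exposure (0.1% DMSO) of forskolin-primed (10 uM, 48 h) H295R cells. Same-well MTT viability; data fitted bidirectionally against DMSO.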

[13] = CEETOX_H295R_MTT_cell_viability: Viability Assessment in the CeeTox HT-H295R MTT Assay (AID 2283718)
[14] = CCTE_Shafer_MEA_acute_burst_percentage_mean: CCTE's Neural Acute Assay for Percentage of Spikes in a Burst, Shafer Lab (AID 2284017);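 note: curve fitted for loss of signal so potency reflects decreased burst percentage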
How it was run: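 Primary rat cortical neurons on 16-electrode MEA wells; 40 min baseline recorded at DIV 13 or 15, then 40 min after compound (0.03-40 uM) at 37 C. Well-mean fraction of spikes in single-electrode bursts; percent change from baseline, DMSO as negative control.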

[15] = read-out: Apolipoprotein A-V (APOA5) gene, APOA5 (gene 116519); test: LTEA_HepaRG_APOA5: Life Technologies and Expression Analysis (LTEA) Assay for Apolipoprotein A-V (APOA5) gene using HepaRG (AID 2283474); conditions: actives raise or lower the signal; mRNA level, 48 h
How it was run: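 HepaRG, 48 h chemical exposure in serum-free induction medium, 8-pt half-log series (top 100 uM), 0.5% DMSO vehicle, duplicates. Readout: APOA5 mRNA by qRT-PCR, housekeeping-normalized; bidirectional fit vs DMSO baseline.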

CC12CC1(C)C(=O)N(c1cc(Cl)cc(Cl)c1)C2=O (stereo not given)
outcome [1]: inactive
outcome [2]: inactive
AC50 [3]: active: 9.92 µM
outcome [4]: inactive

CCC(C)(C)c1ccc(O)cc1
outcome [5]: inactive
outcome [6]: inactive

CCOP(=O)(NC(C)C)Oc1ccc(SC)c(C)c1 (stereo not given)
outcome [7]: inactive
AC50 [8]: active: 39.2 µM
AC50 [9]: active: 36.1 µM
AC50 [10]: active: 22.8 µM

c1ccc(NNc2ccccc2)cc1
outcome [11]: inactive
outcome [12]: inactive
outcome [13]: inactive
AC50 [14]: active: 30.3 µM

COC(=O)C=C(C)OP(=O)(OC)OC
outcome [15]: inactive
